Results reported in patent US12172996B2, “Methyl {4,6-diamino-2-[5-fluoro-1-(2-fluorobenzyl)-1H-pyrazolo[3,4-b]pyridin-3-yl]pyrimidin-5-yl}carbamate active compound product having improved properties, production and formulation thereof” (Adverio Pharma GmbH, priority 2018, dated 2024).
Read-outs that look alike come from different tables or passages of the source.

How the values were obtained:
[1] = Area-specific throughput in an inverting filter centrifuge, industrial scale
Protocol: Improved isolability is measurable on an industrial scale for example via a higher area-specific throughput in an inverting filter centrifuge (example 15).
The isolability of the material produced via route 2 is improved compared to the material produced via route 1. This manifests for example in a higher area-specific throughput in the inverting filter centrifuge. On an industrial scale isolation of the material from route 1 achieved an average area-specific throughput of 1.6 kg/m^2h. The average area-specific throughput of the material from route 2 was 3.0 kg/m^2h and thus nearly double the above (example 15).
Higher area-specific throughput in an inverting filter centrifuge. Industrial scale.

[2] = Dischargeability from the inverting filter centrifuge (filtercake thickness without blockage of discharge path); conditions: industrial scale
Source text: Improved dischargeability from the isolation apparatus: The process according to route 2 prevents the formation of a felt-like filtercake having high tear strength. Both after isolation in the pressure filter and after isolation in the filter centrifugation the filtercake is soft and moldable. This prevents blockage of the discharge path. For example on an industrial scale a blockage of the discharge path from the inverting filter centrifuge after isolation of the material from Route 1 was avoidable only by reducing the filtercake thickness to 8 to 9 mm. By contrast in the isolation of the material from route 2 an average filtercake height of 25 mm was realized without any blocking of the discharge path being observed.

[3] = listed as material from route 2
[4] = listed as material from route 1

Which results are given for `COC(=O)Nc1c(N)nc(-c2nn(Cc3ccccc3F)c3ncc(F)cc23)nc1N` [Route 2, Methyl {4,6-diamino-2-[5-fluoro-1-(2-fluorobenzyl)-1H-pyrazolo[3,4-b]pyridin-3-yl]pyrimidin-5-yl}carbamate]?
Average area-specific throughput [1]: 3.0 kg/m^2h; Average area-specific throughput [1, 3]: 3.0 kg/m^2h; Filtercake thickness without blockage of the discharge path [2, 3]: 25 mm

With `COC(=O)Nc1c(N)nc(-c2nn(Cc3ccccc3F)c3ncc(F)cc23)nc1N` [Route 1, Methyl {4,6-diamino-2-[5-fluoro-1-(2-fluorobenzyl)-1H-pyrazolo[3,4-b]pyridin-3-yl]pyrimidin-5-yl}carbamate] as the compound, how does the Average area-specific throughput [1] read?
The Average area-specific throughput was 1.6 kg/m^2h.

What about the Average area-specific throughput [1, 4] of the same compound?
Its Average area-specific throughput is 1.6 kg/m^2h.

What about the “Filtercake thickness without blockage of the discharge path” value [2, 4] of the same compound?
Its value is 8 to 9 mm.
